Data taken from ChEMBL document CHEMBL3988442, “University of Dundee, Small-Polar-MMV Screening Library” (2021).

By UniProt entry, the sequences of proteins in these tests, tags left out.
UniProt E9BF75, entry or part of it: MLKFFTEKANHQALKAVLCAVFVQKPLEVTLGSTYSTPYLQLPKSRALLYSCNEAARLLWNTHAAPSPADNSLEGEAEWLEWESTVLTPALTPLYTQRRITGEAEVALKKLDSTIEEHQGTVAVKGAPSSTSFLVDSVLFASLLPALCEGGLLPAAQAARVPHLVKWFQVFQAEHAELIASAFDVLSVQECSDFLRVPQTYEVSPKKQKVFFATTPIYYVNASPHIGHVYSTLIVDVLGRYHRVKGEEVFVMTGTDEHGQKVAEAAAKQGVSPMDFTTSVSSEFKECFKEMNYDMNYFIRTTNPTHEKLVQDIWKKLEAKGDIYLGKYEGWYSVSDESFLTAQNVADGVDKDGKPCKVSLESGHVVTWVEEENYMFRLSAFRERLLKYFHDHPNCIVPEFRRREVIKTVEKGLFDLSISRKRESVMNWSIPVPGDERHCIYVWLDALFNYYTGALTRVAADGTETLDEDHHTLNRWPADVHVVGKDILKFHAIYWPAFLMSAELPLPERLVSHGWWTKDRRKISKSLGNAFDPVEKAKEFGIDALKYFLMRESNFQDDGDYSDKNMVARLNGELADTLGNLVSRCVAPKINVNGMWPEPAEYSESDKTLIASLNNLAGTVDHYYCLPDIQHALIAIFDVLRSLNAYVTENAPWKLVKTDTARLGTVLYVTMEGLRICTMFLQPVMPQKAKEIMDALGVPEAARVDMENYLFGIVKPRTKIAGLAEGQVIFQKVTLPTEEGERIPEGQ

A: 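Methionyl-tRNA synthetase (putative), Leishmania donovani (UniProt E9BF75). Primary screen of methionyl-tRNA synthetase; the read-out is not stated. The test concentration is not given. Values are per cent inhibition. Size under these conditions: about 68,000 compounds, about 24 of them at 50% or above in at least one test.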
B: 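Assay on Mycobacterium tuberculosis, filed only as a heat shock assay from Cornell; the read-out is not stated. The concentration is filed as 10 mM, unlikely as a test dose, so the dose is not known. Direction is inferred from retests: higher values go with stronger inhibition. About 69,000 compounds were tested under these conditions; 1.4% (about 930) showed 50% or more at least once.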

All values are in %.
The controls that fix the scale are not given in the record; negative values are as filed.
The compounds are a random part of those screened.
A dash means the value is not listed here; it may have been measured.

| # | Compound | A | B |
|---|---|---|---|
| 1 | `COCc1nnc(-c2cccc(C(=O)N(C)CC(C)(C)C)c2)o1` | 7.784% | 6.696% |
| 2 | `COc1ccc(-n2cnnc2SCC(C)(C)O)cn1` | 16.59% | 2.178% |
| 3 | `COCc1nc(CN2CCOC(CN(C)c3cccnn3)C2)cs1` (configuration not stated) | 0.3436% | -10.66% |
| 4 | `Cc1noc(CNC(=O)C(C)(C)NC(=O)OC(C)(C)C)n1` | 2.681% | -15.37% |
| 5 | `O=C(NCCNc1ccccn1)NC1CCCC1` | 18.75% | -1.164% |
| 6 | `C1CN(CC2CC2)C(COCC2CC2)c2nnn(CC3CC3)c21` (configuration not stated) | 10.46% | - |
| 7 | `CN(C)CCOCC1CN(Cc2ccc(F)cc2)Cc2nnn(C)c21` (configuration not stated) | 20.3% | - |
| 8 | `COC(=O)CCN1CCC(C(=O)c2cc(F)ccc2F)CC1` | 17.58% | -0.01217% |
| 9 | `[H][C@]12CC[C@]([H])(CN(Cc3ncc[nH]3)C1)N(Cc1c(C)noc1C)C2=O` | - | -7.756% |
| 10 | `CC(C)N(Cc1ccc(C#N)cc1)C(=O)NCCNc1ncccn1` | 17.4% | -24.06% |
| 11 | `CC(C)OCc1ncn2c1CN(CCO)CCC2.O=C(O)C(F)(F)F` | - | -18.23% |
| 12 | `Cn1c(=O)[nH]c(=O)c2c1nc1n2CC(c2ccc(Br)cc2)O1` (configuration not stated) | 9.627% | -6.588% |
| 13 | `c1sc(C2CCCC2)nc1CN1CCn2c(nnc2C2CC2)C1` | 13.65% | 55.31% |
| 14 | `CC(C)CNC(=O)CSC1CCc2ccccc2NC1=O` (configuration not stated) | 19.88% | 13.79% |
| 15 | `COC(=O)c1cc(OCC2CCC2)cc(C(=O)N[C@@H]2CCCNC2)c1` | 12.13% | 15.67% |
| 16 | `CC(C)(C)C1SCC(=O)Nc2c1c(O)nn2C1CCCC1` (configuration not stated) | 8.163% | -2.88% |
| 17 | `CC(C(=O)N1CCCCCC1)N1CCN(Cc2nccn2C)CC1` (configuration not stated) | 10.89% | -1.074% |
| 18 | `CCn1cncc1CN1CCN(CC2(c3ccc(C)cc3)CC2)CC1.Cl` | - | -24.04% |
| 19 | `O=C(NCc1ccccn1)[C@]12COC[C@H]1CN(Cc1ccccc1F)C2` | 9.645% | - |
| 20 | `CC(C)c1ccc(CS(=O)(=O)Cc2nc(N)nc(N(C)C)n2)cc1` | 47.91% | 9.282% |
| 21 | `CC(C)c1nc(CNc2ccc(N3CCC(CO)CC3)cn2)cs1` | 8.571% | 5.741% |
| 22 | `Cc1nccc([C@@H]2C[C@H]3CN(S(=O)(=O)c4ccccc4)C[C@H]3O2)n1` | 17.77% | - |
| 23 | `CN1C(=O)CCCC12CCCN(Cc1cccs1)C2.O=C(O)C(F)(F)F` (configuration not stated) | - | -10.57% |
| 24 | `CS(=O)(=O)NC1CCN(C(=O)CCn2cccn2)CC1` | 10.8% | 3.529% |
| 25 | `CS(=O)(=O)NCc1ccc2c(c1)CCC2` | 12.22% | -1.182% |
| 26 | `CCc1nc(C2CCCN2C(=O)c2cc[nH]n2)no1` (configuration not stated) | 22.25% | -4.528% |
| 27 | `Cn1cc(N2CC3(CCN(Cc4nccs4)CC3)OCC2=O)cn1.O=C(O)C(F)(F)F` | - | -26.5% |
| 28 | `CCO[C@H]1C[C@@H](O)C12CCN(C(=O)CN1CCCCCC1=O)CC2` | -0.2985% | -2.185% |
| 29 | `CN(C)c1ncccc1CNC(=O)c1csc(Br)c1` | 8.71% | -11.62% |
| 30 | `[H][C@@]12C[C@H](C(=O)NCc3ccccc3)[C@@]([H])(CN(C(=O)NC3CCCC3)C1)O2` | - | -22.45% |
| 31 | `Cc1nc(C2(O)CCCNCC2)sc1CCOc1ccccc1F.Cl` (configuration not stated) | - | -4.166% |
| 32 | `O=C(O)c1cccc(CN2CCC(c3ccnc4ccnn34)CC2)c1` | 12.9% | -9.467% |
| 33 | `[H][C@]12CCN(C(=O)NCc3ccccc3C)CC[C@@]1([H])S(=O)(=O)N(C)C2` | - | -15.67% |
| 34 | `Cc1cc(NC(=O)CNC2CCc3ncnn3C2)no1` (configuration not stated) | 17.32% | -16.99% |
| 35 | `CCc1nnc(Nc2cccc(C3CCN(C(=O)CN(C)C)CC3)n2)s1` | 4.531% | -17.43% |
| 36 | `Cl.Cl.O[C@@H]1C[C@@](CNCc2cccc(Cl)c2)(COc2cccnc2)C[C@@H]1O` | - | -67.1% |
| 37 | `O=C(NCCc1cccs1)[C@H]1CO[C@H]2CCN(CC3CC3)C[C@H]2C1` | 13.44% | - |
| 38 | `CC(C)c1cc(C2CCN(Cc3cc(F)cc(F)c3)CC2)[nH]n1` | 13.99% | 8.81% |
| 39 | `Cn1ncc(N2CCOC(CCNC(=O)CO)C2)cc1=O` (configuration not stated) | -34.67% | -14.54% |
| 40 | `OC(CNCCc1nnc2ccccn12)c1ccc2c(c1)OCO2` (configuration not stated) | 18.43% | 1.02% |
| 41 | `O=C(CCOc1ccc(F)cc1)N1CCCC1Cn1cccn1` (configuration not stated) | 18.72% | 0% |
| 42 | `O=C(c1ccc(F)c(Cl)c1)N1C[C@@H]2CC[C@H](C1)N(Cc1ccccc1)C2` | 37.5% | - |
| 43 | `Cc1noc(CNC(=O)CN(C)c2nc3ccccc3s2)n1` | 18.47% | 1.225% |
| 44 | `Cl.NCCNS(=O)(=O)Cc1ccc(Br)cc1` | - | -12.76% |
| 45 | `CN(CCCOc1ccccc1Cl)C(=O)CN1CCCCCC1=O` | 15.41% | -1.068% |
| 46 | `CCn1ncc2c1C(COC)CN(Cc1nccs1)C2` (configuration not stated) | 0% | -19.69% |
| 47 | `COc1ccc(C2Nc3ccccc3NC3=C2C(=O)NC3)cc1OC` (configuration not stated) | 6.65% | 12.15% |
| 48 | `Cc1ccc(C(C)(O)CNC(=O)CCn2ccnc2C(C)C)o1` (configuration not stated) | -0.2584% | -6.636% |

Repeated from the top, 3 entries:

Compound	A	B
COCc1nnc(-c2cccc(C(=O)N(C)CC(C)(C)C)c2)o1	7.784%	6.696%
COc1ccc(-n2cnnc2SCC(C)(C)O)cn1	16.59%	2.178%
COCc1nc(CN2CCOC(CN(C)c3cccnn3)C2)cs1 (configuration not stated)	0.3436%	-10.66%